Data: article PMC9763339
These are yes or no findings as the source states them, for the method shown. Binding seen in cells or lysates may run through a third protein.

The chains behind the UniProt entries cited, without tags or fusion partners. Residues count along the entry.
UniProt Q8Y9T5, residues 37-205: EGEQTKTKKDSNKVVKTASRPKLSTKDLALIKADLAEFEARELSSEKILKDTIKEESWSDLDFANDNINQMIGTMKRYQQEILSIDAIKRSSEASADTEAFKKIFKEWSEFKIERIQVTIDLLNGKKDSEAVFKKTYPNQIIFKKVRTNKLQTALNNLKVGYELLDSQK
UniProt P52756: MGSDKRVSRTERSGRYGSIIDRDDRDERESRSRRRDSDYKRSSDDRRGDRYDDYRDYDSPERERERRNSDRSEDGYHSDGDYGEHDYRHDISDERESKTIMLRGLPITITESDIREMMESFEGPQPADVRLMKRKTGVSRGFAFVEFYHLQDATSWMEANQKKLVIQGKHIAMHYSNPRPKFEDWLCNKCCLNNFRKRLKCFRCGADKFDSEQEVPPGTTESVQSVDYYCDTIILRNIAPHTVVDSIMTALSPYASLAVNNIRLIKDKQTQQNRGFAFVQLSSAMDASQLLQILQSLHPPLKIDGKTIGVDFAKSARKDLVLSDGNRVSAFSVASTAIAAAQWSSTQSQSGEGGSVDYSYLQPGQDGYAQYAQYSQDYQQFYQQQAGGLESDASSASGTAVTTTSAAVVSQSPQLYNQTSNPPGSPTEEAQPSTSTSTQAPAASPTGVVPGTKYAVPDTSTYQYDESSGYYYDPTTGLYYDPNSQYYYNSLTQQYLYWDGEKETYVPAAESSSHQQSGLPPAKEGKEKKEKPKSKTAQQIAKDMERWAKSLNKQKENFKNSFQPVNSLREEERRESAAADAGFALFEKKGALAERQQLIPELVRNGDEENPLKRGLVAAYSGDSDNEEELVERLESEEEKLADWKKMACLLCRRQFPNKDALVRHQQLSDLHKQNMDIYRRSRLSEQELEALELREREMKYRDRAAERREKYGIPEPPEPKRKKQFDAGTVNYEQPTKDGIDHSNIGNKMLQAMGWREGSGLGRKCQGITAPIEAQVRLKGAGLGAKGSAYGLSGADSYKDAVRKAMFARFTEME

Target: GST-LntA (L. monocytogenes) (UniProt Q8Y9T5)
Experiment: pull-down; GST fusion proteins on magnetic glutathione beads incubated overnight at 4 °C with nuclear extracts of HEK293-FT cells transfected with RBM5-Myc; washes in 20 mM Tris pH 7.65, 150 mM NaCl, 0.5% IGEPAL; only the target purified

Substance: RBM5-Myc (from UniProt P52756 1-815)
- binding: no binding
